No constants are given. Whether binding was seen depends on the method and setting. Binding seen in cells or lysates may run through a third protein. These calls come from enrichment with a bait or labelling near it, and not all partners need be listed. Sequences can lack the tags named with a protein.
Biological target: T1, Flag-tagged human GLDC (glycine decarboxylase), wild type (human) (UniProt P23378)
T1 sequence (chain, phosphotyrosine at Y993 and Y1008 after EGF stimulation or SRC overexpression): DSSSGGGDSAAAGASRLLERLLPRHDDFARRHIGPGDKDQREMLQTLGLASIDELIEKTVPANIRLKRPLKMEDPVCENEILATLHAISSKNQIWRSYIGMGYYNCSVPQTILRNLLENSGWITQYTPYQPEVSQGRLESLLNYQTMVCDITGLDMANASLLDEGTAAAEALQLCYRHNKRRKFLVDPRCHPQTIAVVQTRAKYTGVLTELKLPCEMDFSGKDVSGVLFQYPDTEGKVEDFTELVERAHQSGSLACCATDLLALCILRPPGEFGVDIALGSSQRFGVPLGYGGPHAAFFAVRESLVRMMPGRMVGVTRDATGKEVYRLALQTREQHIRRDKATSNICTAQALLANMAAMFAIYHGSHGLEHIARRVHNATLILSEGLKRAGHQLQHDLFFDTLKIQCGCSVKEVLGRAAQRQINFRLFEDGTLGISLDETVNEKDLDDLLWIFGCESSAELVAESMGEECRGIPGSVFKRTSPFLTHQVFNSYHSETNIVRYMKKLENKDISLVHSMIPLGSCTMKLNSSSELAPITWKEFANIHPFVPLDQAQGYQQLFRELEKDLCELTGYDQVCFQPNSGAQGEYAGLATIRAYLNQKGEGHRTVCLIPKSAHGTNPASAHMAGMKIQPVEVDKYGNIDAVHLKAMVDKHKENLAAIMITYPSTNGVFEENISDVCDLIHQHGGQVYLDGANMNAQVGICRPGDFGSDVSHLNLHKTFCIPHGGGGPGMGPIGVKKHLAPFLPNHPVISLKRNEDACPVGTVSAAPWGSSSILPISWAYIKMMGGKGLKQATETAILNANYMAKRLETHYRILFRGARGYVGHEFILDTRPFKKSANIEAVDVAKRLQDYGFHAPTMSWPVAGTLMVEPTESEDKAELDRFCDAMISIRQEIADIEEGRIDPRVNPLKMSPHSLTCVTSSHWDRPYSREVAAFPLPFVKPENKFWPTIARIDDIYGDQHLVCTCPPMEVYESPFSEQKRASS
Assay: affinity purification with mass spectrometry; HEK293/EGFR cells transfected with Flag-tagged human GLDC for 24 h, with or without EGF 100 ng/ml for 6 h; anti-Flag immunoprecipitation; compared with mock

Protein sequences, listed by entry. Tags and fused reporters are not part of them.
UniProt Q969G3: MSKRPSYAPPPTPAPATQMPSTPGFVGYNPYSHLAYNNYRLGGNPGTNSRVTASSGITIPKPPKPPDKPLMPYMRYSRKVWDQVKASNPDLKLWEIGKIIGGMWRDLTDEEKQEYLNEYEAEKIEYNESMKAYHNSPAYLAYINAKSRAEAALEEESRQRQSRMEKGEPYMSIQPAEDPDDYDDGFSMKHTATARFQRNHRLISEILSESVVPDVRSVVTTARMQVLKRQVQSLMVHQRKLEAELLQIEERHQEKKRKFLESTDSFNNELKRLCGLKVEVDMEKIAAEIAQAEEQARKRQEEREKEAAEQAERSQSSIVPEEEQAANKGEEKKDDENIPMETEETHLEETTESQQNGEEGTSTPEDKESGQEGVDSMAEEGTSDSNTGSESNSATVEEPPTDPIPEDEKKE
UniProt Q9NPF5: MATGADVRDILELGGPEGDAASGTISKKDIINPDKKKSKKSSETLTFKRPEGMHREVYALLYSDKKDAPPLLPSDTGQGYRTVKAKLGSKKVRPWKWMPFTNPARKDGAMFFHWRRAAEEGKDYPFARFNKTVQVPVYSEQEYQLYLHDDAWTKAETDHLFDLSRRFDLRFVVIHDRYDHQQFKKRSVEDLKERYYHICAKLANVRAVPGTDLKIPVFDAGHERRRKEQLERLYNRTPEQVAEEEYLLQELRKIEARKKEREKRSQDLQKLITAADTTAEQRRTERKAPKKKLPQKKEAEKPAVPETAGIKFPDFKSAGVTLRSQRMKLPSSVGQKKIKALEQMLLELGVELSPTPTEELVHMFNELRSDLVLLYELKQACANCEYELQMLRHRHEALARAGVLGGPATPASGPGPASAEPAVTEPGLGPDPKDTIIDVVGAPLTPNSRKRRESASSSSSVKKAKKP

| Substance | binding |
| --- | --- |
| SMARCE1, endogenous (from UniProt Q969G3 1-411) | binds |
| DMAP1, endogenous (from UniProt Q9NPF5 1-467) | binds |

From PMC12528744
